Values quoted from earlier work, collected in patent publication US6645755B1, “VECTOR MODIFIED BY SEQUENCE CODING FOR A SEQUENCE OF AMINO ACIDS CONTAINED IN A MAMMALIAN PROTEIN HAVING THE BIOLOGICAL ACTIVITY OF A MEMBRANE RECEPTOR, EXPRESSION OF THIS SEQUENCE IN TRANSFORMED UNICELLULAR CULTURES BY MEANS OF THIS VECTOR, PROCEDURE FOR STUDYING LIGANDS RECOGNIZING THESE RECEPTORS” (Centre National de la Recherche Scientifique, priority 1988, dated 2003).

Biological target: mamm. β2AR
Settings: reference mammalian tissues; cited from earlier work

CC(C)NCC(O)COc1cccc2ccccc12 (stereo not shown) [propranolol]
Ki: 0.54 nM
